These are yes or no findings as the source states them, for the method shown. Binding seen in cells or lysates may run through a third protein. Some results given as binding are weak or reduced against the parent protein; the word gives no strength. Sequences can lack the tags named with a protein.
B1: Cts1-flag-3HA (S. pombe CTP synthase tagged with flag and 3HA) (enzyme, UniProt O42644 1-600)
chain: MKYVLVSGGVISGIGKGVIASSTGLLLKTLGLKVTSIKIDPYMNIDAGTMSPLEHGEVFVLNDGGEVDLDLGNYERYLNVTLTHDNNITTGKVYSNVIQKERRGDYLGKTVQIVPHVTNEIQDWVERVARIPVDQSGEEPDVCIVELGGTVGDIESAAFVEAMRQFQFRVGHENFVSIHVSLVPVINGEQKTKPTQQAIRDLRSLGITPDLIACRCKQPLEKSVIDKISLFCHVGPEQVLAVHDVSSTYHVPQLLEDKLLEYLKIRFALDKISVSRELALAGENMWSSWKHLTQGYDHLFKKVTIVLVGKYTHLQDSYISVIKALEHSAMRCGRKLDLQWVEASHLEASTNTSDPLSYHKAWHLVCSANGILVPGGFGSRGVEGMIAAAKWARENNTPYLGICLGMQVAVIEFARSVCGIEGAFSEEFDKECENNVVVYMPEIDKDKLGGTMRLGLRPTFFQPNSEWSKLRKLHKMVDEVLERHRHRYEINPAFVSRLEQGGISFIGKDERGERMEIIEKRDHPYFVGVQYHPEYLSKPLKPSPPIFGLVAASAGLLDEFIQSGEEVEWSNFSHFNAESALADMNDSVEVTEEATVVTIS
B2: Cts1-YFP (S. pombe CTP synthase fused to YFP) (enzyme, UniProt O42644 1-600)
chain: B1 chain

Amino acid sequences for entries named in this document (tags omitted). Residues count along the entry.
UniProt P0CG72, 1-76: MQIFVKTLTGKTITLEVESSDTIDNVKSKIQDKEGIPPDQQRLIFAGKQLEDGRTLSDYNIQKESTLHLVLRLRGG

Target: ubiquitin (S. pombe (endogenous in S. pombe)) (UniProt P0CG72)
Test: co-IP

Binder | binding
B1 | binds
B2 | binds

From article doi:10.1101/2021.12.06.470909
